The list does not hold the whole screen: it gathers tests that were run many times, whatever their T/C, doses with no T/C, and many T/C values between a quarter and a half above the control. Other doses and runs of a compound stand elsewhere. T/C is the treated group as % of the vehicle group. Some doses have a count of surviving animals in place of a T/C: the source holds a T/C of zero for them, seemingly a mark for toxic or unscored doses. Some survivor counts are full or nearly so, which does not show that the dose was tolerated: the source hardly ever lists a survival T/C far under the control, and the zero likely stands for such cases as well. Counts of survivors are from the toxicity check (mostly the fifth day) where no day follows; animals may have died later. Schedule codes are those of the source, taken here to give the interval after Q, in days (D) or hours (H), and the number of doses after X. Some schedule codes hold Z or #, which are not explained here. Some structures stand for samples that the source files as different forms (salt, stereo form or complex); doses refer to the form tested. For survival time, this PubChem deposit counts one and a half times the control or more as active, and values a quarter to a half above the control carry no call in these data; other NCI protocols may use other cut-offs. Some doses were run more than once; the results are listed from low to high. Some T/C values are followed by the survivors on the day toxicity was checked, most often the fifth; where none is given, no animal had died by that day. *1 amine or outer side, *2 acyl side, *3 side chain or, on linkers, in order; H or OH if unused. Where a SMILES comes first, the peptide text is derived from it. Bridges are numbered along the chain shown (N, C = ends). Roman numbers before positions name the chains, in order. [ ]: non-standard residue; d: D form. Actinocin(9to1) = Cc1c2oc3c(C)ccc(C(=O)[*:1])c3nc-2c(C(=O)[*:2])c(N)c1=O; aThr = C[C@H](O)[C@H](N)C(=O)O; NMeV = CN[C@H](C(=O)O)C(C)C; Sar = CNCC(=O)O
Test system: BDF1 mice, L1210 Methyl-GAG-resistant leukemia, survival T/C
Assay: NCI In Vivo Anticancer Drug Screen. Data for tumor model L1210 Leukemia resistant to Methyl-GAG; NSC 32946 (subcutaneous) in B6D2F1 (BDF1) mice
Settings: T/C endpoint: mean survival time, higher T/C = longer survival
Procedure: The antitumor activity of compounds was measured in mice bearing transplantable tumors. Survival or tumor size were measured and the results are expressed as the measurement made in the treated group (T) divided by the measurement made in the vehicle treated control group (C). The tumor model used in this assay is L1210 Leukemia resistant to Methyl-GAG; NSC 32946 (subcutaneous) in B6D2F1 (BDF1) mice

[1] = dose: 0.5 mg/kg/injection, schedule: Q01DX Z (ip), vehicle: saline
[2] = dose: 800.0 mg/kg/injection, schedule: Q01DX Z (ip), vehicle: carboxymethylcellulose (CMC)
[3] = dose: 200.0 mg/kg/injection, schedule: Q01DX Z (ip), vehicle: carboxymethylcellulose (CMC)
[4] = dose: 50.0 mg/kg/injection, schedule: Q01DX Z (ip), vehicle: carboxymethylcellulose (CMC)
[5] = dose: 400.0 mg/kg/injection, schedule: Q01DX Z (ip), vehicle: carboxymethylcellulose (CMC)
[6] = dose: 50.0 mg/kg/injection, schedule: Q01DX Z (ip), vehicle: water
[7] = dose: 100.0 mg/kg/injection, schedule: Q01DX Z (ip), vehicle: water
[8] = dose: 200.0 mg/kg/injection, schedule: Q01DX Z (ip), vehicle: water

## COc1cc2c(c(OC)c1OC)-c1ccc(OC)c(=O)cc1[C@@H](NC(C)=O)CC2
[1]
  survivor count: 6 of 6
dose: 1.0 mg/kg/injection, schedule: Q01DX Z (ip), vehicle: saline
  survivor count: 5 of 6
dose: 2.0 mg/kg/injection, schedule: Q01DX Z (ip), vehicle: saline
  survivor count: 0 of 6

## CS(=O)(=O)OCCCCOS(C)(=O)=O
dose: 12.8 mg/kg/injection, schedule: Q01DX Z (ip), vehicle: methylcellulose (MC)
  survivor count: 6 of 6
dose: 25.6 mg/kg/injection, schedule: Q01DX Z (ip), vehicle: methylcellulose (MC)
  survivor count: 6 of 6

## O=C(Nc1ccc(NC2=NCCN2)cc1)c1ccc(C(=O)Nc2ccc(NC3=NCCN3)cc2)cc1
dose: 4.0 mg/kg/injection, schedule: Q01DX Z (ip), vehicle: saline
  T/C: 143 % of control
dose: 16.0 mg/kg/injection, schedule: Q01DX Z (ip), vehicle: saline
  T/C: 138 % of control

## OCC1OC(n2cnc3c(=S)nc[nH]c32)C(O)C1O (configuration not stated)
dose: 62.5 mg/kg/injection, schedule: Q01DX Z (ip), vehicle: carboxymethylcellulose (CMC)
  T/C: 144 % of control
dose: 125.0 mg/kg/injection, schedule: Q01DX Z (ip), vehicle: carboxymethylcellulose (CMC)
  T/C: 139 % of control
dose: 250.0 mg/kg/injection, schedule: Q01DX Z (ip), vehicle: carboxymethylcellulose (CMC)
  T/C: 139 % of control
dose: 500.0 mg/kg/injection, schedule: Q01DX Z (ip), vehicle: carboxymethylcellulose (CMC)
  survivor count: 5 of 6
dose: 1000.0 mg/kg/injection, schedule: Q01DX Z (ip), vehicle: carboxymethylcellulose (CMC)
  survivor count: 6 of 6

## O=NN(CCCl)C(=O)NCCCl
[1]
  T/C: 125 % of control
dose: 64.0 mg/kg/injection, schedule: Q01DX Z (ip), vehicle: saline
  survivor count: 5 of 6

## NC(=O)c1ccc(N)nc1
dose: 1.25 mg/kg/injection, schedule: Q01DX Z (ip), vehicle: water
  T/C: 140 % of control [5 of 6 alive]
dose: 2.5 mg/kg/injection, schedule: Q01DX Z (ip), vehicle: saline
  T/C: 130 % of control
dose: 2.5 mg/kg/injection, schedule: Q01DX Z (ip), vehicle: water
  survivor count: 6 of 6
dose: 5.0 mg/kg/injection, schedule: Q01DX Z (ip), vehicle: water
  survivor count: 6 of 6

## O=C(Nc1ccc(C2=NCCN2)cc1)c1ccc(C(=O)Nc2ccc(C3=NCCN3)cc2)cc1
[2]
  survivor count: 2 of 6

## CCC(=O)O[C@H]1CC[C@H]2[C@@H]3CCC4=CC(=O)CC[C@]4(C)[C@H]3CC[C@]12C
dose: 37.5 mg/kg/injection, schedule: Q01DX Z (sc), vehicle: steroid suspending solution
  survivor count: 6 of 6
dose: 75.0 mg/kg/injection, schedule: Q01DX Z (sc), vehicle: steroid suspending solution
  survivor count: 6 of 6
dose: 150.0 mg/kg/injection, schedule: Q01DX Z (sc), vehicle: steroid suspending solution
  survivor count: 6 of 6
dose: 300.0 mg/kg/injection, schedule: Q01DX Z (sc), vehicle: steroid suspending solution
  survivor count: 6 of 6

## CCCSc1ncnc2nc[nH]c12
[3]
  survivor count: 0 of 6

## N=[N+]=CC(=O)OCC(N)C(=O)O (configuration not stated)
dose: 6.25 mg/kg/injection, schedule: Q01DX Z (ip), vehicle: saline
  T/C: 140 % of control
dose: 9.4 mg/kg/injection, schedule: Q01DX Z (ip), vehicle: saline
  T/C: 144 % of control
dose: 50.0 mg/kg/injection, schedule: Q01DX Z (ip), vehicle: saline
  survivor count: 6 of 6

## O=c1[nH]c(=O)n(C2CC(O)C(CO)O2)cc1F (configuration not stated)
[4]
  T/C: 125 % of control
dose: 100.0 mg/kg/injection, schedule: Q01DX Z (ip), vehicle: carboxymethylcellulose (CMC)
  T/C: 138 % of control
[5]
  survivor count: 6 of 6
[2]
  survivor count: 6 of 6

## S=c1nc[nH]c2nc[nH]c12
dose: 12.5 mg/kg/injection, schedule: Q01DX Z (ip), vehicle: other
  T/C: 145 % of control
dose: 18.75 mg/kg/injection, schedule: Q01DX Z (ip), vehicle: other
  T/C: 128 % of control
dose: 25.0 mg/kg/injection, schedule: Q01DX Z (ip), vehicle: other
  T/C: 125 and 133 % of control
dose: 100.0 mg/kg/injection, schedule: Q01DX Z (ip), vehicle: other
  T/C: 128 % of control
dose: 150.0 mg/kg/injection, schedule: Q01DX Z (ip), vehicle: other
  T/C: 126 % of control

## Cc1c2oc3c(C)ccc(C(=O)N[C@@H]4C(=O)N[C@H](C(C)C)C(=O)N5CCC[C@H]5C(=O)N(C)CC(=O)N(C)[C@@H](C(C)C)C(=O)O[C@H]4C)c3nc-2c(C(=O)N[C@@H]2C(=O)N[C@H](C(C)C)C(=O)N3CCC[C@H]3C(=O)N(C)CC(=O)N(C)[C@@H](C(C)C)C(=O)O[C@H]2C)c(N)c1=O (I: [aThr][dV]P[Sar][NMeV] / II: [aThr][dV]P[Sar][NMeV]; ester I:1-I:C, II:1-II:C; linker I:N-II:N via Actinocin(9to1))
dose: 12.8 micrograms/kg/injection, schedule: Q01DX Z (ip), vehicle: saline
  survivor count: 6 of 6
dose: 51.2 micrograms/kg/injection, schedule: Q01DX Z (ip), vehicle: saline
  survivor count: 6 of 6

## Nc1nc2n[nH]nc2c(=O)[nH]1
dose: 50.0 mg/kg/injection, schedule: Q01DX Z (ip), vehicle: other
  T/C: 136 and 143 % of control

## CN(N=O)C(=O)NC(C=O)C(O)C(O)C(O)CO (configuration not stated)
dose: 100.0 mg/kg/injection, schedule: Q01DX Z (ip), vehicle: saline
  T/C: 130 % of control

## S=P(N1CCOCC1)(N1CC1)N1CC1
[4]
  survivor count: 6 of 6

## Nc1nc(=S)c2ncn(C3OC(CO)C(O)C3O)c2[nH]1 (configuration not stated)
dose: 5.0 mg/kg/injection, schedule: Q01DX Z (ip), vehicle: carboxymethylcellulose (CMC)
  survivor count: 6 of 6
dose: 10.0 mg/kg/injection, schedule: Q01DX Z (ip), vehicle: carboxymethylcellulose (CMC)
  survivor count: 6 of 6

## Nc1nc(=S)c2[nH]cnc2[nH]1
dose: 1.0 mg/kg/injection, schedule: Q01DX Z (ip), vehicle: carboxymethylcellulose (CMC)
  T/C: 134 % of control
dose: 8.0 mg/kg/injection, schedule: Q01DX Z (ip), vehicle: carboxymethylcellulose (CMC)
  survivor count: 6 of 6

## C[N+](C)(C)c1ncnc2nc[nH]c12
[5]
  survivor count: 0 of 6
[2]
  survivor count: 0 of 6

## C[C@@H]1C[C@@H]([C@H](O)CC2CC(=O)NC(=O)C2)C(=O)[C@@H](C)C1
dose: 25.0 mg/kg/injection, schedule: Q01DX Z (ip), vehicle: water
  T/C: 141 % of control
[6]
  T/C: 126 and 136 % of control
[7]
  survivor count: 5 of 6
[8]
  survivor count: 1 of 6

## CN(C)CC(=O)c1ccc(O)c(O)c1
dose: 1000.0 mg/kg/injection, schedule: Q01DX Z (ip), vehicle: saline
  survivor count: 0 of 6

## CN(C)c1ccc(/C=C/c2ccnc3ccccc23)cc1
[6]
  survivor count: 6 of 6
[7]
  survivor count: 5 of 6
[3]
  survivor count: 6 of 6
[8]
  survivor count: 1 of 6

## O=c1cnn(C2OC(CO)C(O)C2O)c(=O)[nH]1 (configuration not stated)
dose: 31.25 mg/kg/injection, schedule: Q01DX Z (ip), vehicle: water
  T/C: 129 % of control
dose: 62.5 mg/kg/injection, schedule: Q01DX Z (ip), vehicle: water
  T/C: 142 % of control
dose: 125.0 mg/kg/injection, schedule: Q01DX Z (ip), vehicle: water
  T/C: 136 and 137 % of control
dose: 250.0 mg/kg/injection, schedule: Q01DX Z (ip), vehicle: water
  T/C: 131 and 142 % of control
dose: 500.0 mg/kg/injection, schedule: Q01DX Z (ip), vehicle: water
  T/C: 125 [5 of 6 alive] and 140 % of control
dose: 1000.0 mg/kg/injection, schedule: Q01DX Z (ip), vehicle: water
  T/C: 129 % of control

## O=C(Nc1ccc(C2=NCCN2)cc1)c1cccc(C(=O)Nc2ccc(C3=NCCN3)cc2)c1
dose: 4.7 mg/kg/injection, schedule: Q01DX Z (ip), vehicle: water
  T/C: 142 % of control
dose: 9.4 mg/kg/injection, schedule: Q01DX Z (ip), vehicle: water
  T/C: 145 % of control
[7]
  survivor count: 3 of 6
dose: 300.0 mg/kg/injection, schedule: Q01DX Z (ip), vehicle: carboxymethylcellulose (CMC)
  T/C: 125 % of control [5 of 6 alive]
dose: 600.0 mg/kg/injection, schedule: Q01DX Z (ip), vehicle: water
  survivor count: 1 of 6
